These are yes or no findings as the source states them, for the method shown. Binding seen in cells or lysates may run through a third protein. Where a sequence is shown, tags or fusion partners need not be part of it.
B1: EB1_(125–268)-GFP (mouse EB1 residues 125-268) (domain or fragment, UniProt Q61166 125-268)
chain: DPVAARQGQETAVAPSLVAPALSKPKKPLGSSTAAPQRPIATQRTTAAPKAGPGMVRKNPGVGNGDDEAAELMQQVKVLKLTVEDLEKERDFYFGKLRNIELICQENEGENDPVLQRIVDILYATDEGFVIPDEGGPQEEQEEY
B2: EB1_(1–133)-GFP (mouse EB1 residues 1-133) (domain or fragment, UniProt Q61166 1-133)
chain: MAVNVYSTSVTSDNLSRHDMLAWINESLQLNLTKIEQLCSGAAYCQFMDMLFPGSIALKKVKFQAKLEHEYIQNFKILQAGFKRMGVDKIIPVDKLVKGKFQDNFEFVQWFKKFFDANYDGKEYDPVAARQGQ

Target: Halo-tagged p104-CT_(SKNN)-V5 (p104 residues 470-871, SKIP motif mutated to SKNN) (Theileria annulata)
Experiment: pull-down; Halo-tagged p104 fragments (C-terminal V5) linked to Halolink resin; about 500 µg lysate of COS-7 cells (untransfected, or expressing EB1-GFP fragments) incubated overnight; 5 washes with 500 mM NaCl and 0.01% tween-20; elution by TEV protease; immunoblot with anti-EB1, anti-GFP and anti-V5; only the target purified

Binder | binding
B1 | no binding
B2 | no binding

Source: article PMC3649978
